Results taken from the supplement of paper PMC10032668.
± gives the standard deviation of the averaged measurements. The list shows a part of the results. Only hits are listed; about a third recur on repeated control peptides.

Sequences of proteins named here, by UniProt entry; tags and fusion partners are left off.
MORF4L2, Q15014, UniProt Q15014, whole entry: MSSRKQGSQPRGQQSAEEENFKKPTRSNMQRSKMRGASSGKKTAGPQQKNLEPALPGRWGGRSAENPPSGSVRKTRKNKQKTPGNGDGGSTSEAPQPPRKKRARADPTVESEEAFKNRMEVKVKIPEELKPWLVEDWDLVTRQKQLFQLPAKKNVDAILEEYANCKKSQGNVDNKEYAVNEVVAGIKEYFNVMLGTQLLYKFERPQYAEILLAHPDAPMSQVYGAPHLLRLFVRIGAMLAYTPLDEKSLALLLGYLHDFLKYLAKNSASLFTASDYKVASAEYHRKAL
MPG, P29372, UniProt P29372, whole entry: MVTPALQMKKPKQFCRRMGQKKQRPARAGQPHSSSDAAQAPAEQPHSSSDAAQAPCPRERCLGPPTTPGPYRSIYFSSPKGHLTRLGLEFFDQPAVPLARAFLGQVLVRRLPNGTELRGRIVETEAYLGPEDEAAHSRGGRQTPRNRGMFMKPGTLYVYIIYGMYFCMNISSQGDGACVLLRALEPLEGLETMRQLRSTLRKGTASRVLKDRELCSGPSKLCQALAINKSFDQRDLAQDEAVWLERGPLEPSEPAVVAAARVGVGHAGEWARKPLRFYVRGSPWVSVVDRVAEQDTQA
PIN4, Q9Y237, UniProt Q9Y237, whole entry: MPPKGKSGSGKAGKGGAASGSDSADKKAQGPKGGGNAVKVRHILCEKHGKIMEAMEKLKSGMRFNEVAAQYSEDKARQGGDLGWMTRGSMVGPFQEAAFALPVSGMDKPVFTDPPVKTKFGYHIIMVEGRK
TMA7, Q9Y2S6, UniProt Q9Y2S6, whole entry: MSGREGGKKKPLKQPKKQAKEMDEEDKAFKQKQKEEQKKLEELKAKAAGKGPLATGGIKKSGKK

Experiments:
Assay in all cases: PRISMA enrichment of interactor (LFQ) in peptide spot vs all other peptide spots (log2 fold change); higher = stronger / more specific binding of the interactor to the peptide
[1] = target: LENG1, Q96BZ8
Method: (§1)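 PRISMA: 221 full-length sORF-encoded peptides (3-15 aa), plus SOS1/GLUT1 control peptides, were spot-synthesized on cellulose membranes in triplicate. Membranes were incubated with HEK293T lysate, and bound proteins were identified by LC-MS/MS with LFQ. Enrichment is the log2 fold change versus all other peptide spots; only significant interactors are listed (cutoff c=6, x0=2.8).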

[2] = target: LSM14A, Q8ND56
Method: as §1

[3] = target: MAZ, P56270
Method: as §1

[4] = target: MORF4L2, Q15014
Method: as §1

[5] = target: MPG, P29372
Method: as §1

[6] = target: MRM2, Q9UI43
Method: as §1

[7] = substrate: NONO, Q15233
Method: as §1

[8] = substrate: NOSIP, Q9Y314
Method: as §1

[9] = target: NUSAP1, Q9BXS6
Method: as §1

[10] = target: PCLAF, Q15004
Method: as §1

[11] = target: PIN4, Q9Y237
Method: as §1

[12] = target: POLDIP3, Q9BY77
Method: as §1

[13] = substrate: PPIF, P30405
Method: as §1

[14] = target: PSPC1, Q8WXF1
Method: as §1

[15] = target: PSRC1, Q6PGN9
Method: as §1

[16] = target: RAB34
Method: as §1

[17] = target: RBIS, Q8N0T1
Method: as §1

[18] = target: RBM33, Q96EV2
Method: as §1

[19] = target: SAFB, Q15424
Method: as §1

[20] = target: SAFB2, Q14151
Method: as §1

[21] = target: SERF2, P84101
Method: as §1

[22] = target: SFPQ, P23246
Method: as §1

[23] = target: SMNDC1, O75940
Method: as §1

[24] = target: TACO1, Q9BSH4
Method: as §1

[25] = target: TMA7, Q9Y2S6
Method: as §1

[26] = target: UTP11, Q9Y3A2
Method: as §1

[27] = target: ZNF593, O00488
Method: as §1

[28] = target: ZNF638, Q14966
Method: as §1

[29] = target: ZNF706, Q9Y5V0
Method: as §1

[30] = target: ZNF768, Q9H5H4
Method: as §1

Binder: MCVSVYADV [GPBP1]
- PRISMA enrichment of interactor (log2) [1]: 4.44
- PRISMA enrichment of interactor (log2) [2]: 4.56
- PRISMA enrichment of interactor (log2) [3]: 5.54 ± 0.82
- PRISMA enrichment of interactor (log2) [4]: 6.19
- PRISMA enrichment of interactor (log2) [5]: 6.21
- PRISMA enrichment of interactor (log2) [6]: 4.44
- PRISMA enrichment of interactor (log2) [7]: 5.37
- PRISMA enrichment of interactor (log2) [8]: 7.14
- PRISMA enrichment of interactor (log2) [9]: 5.17
- PRISMA enrichment of interactor (log2) [10]: 5
- PRISMA enrichment of interactor (log2) [11]: 5.04
- PRISMA enrichment of interactor (log2) [12]: 5.72
- PRISMA enrichment of interactor (log2) [13]: 5.97
- PRISMA enrichment of interactor (log2) [14]: 5.71
- PRISMA enrichment of interactor (log2) [15]: 5.65
- PRISMA enrichment of interactor (log2) [16]: 4.12
- PRISMA enrichment of interactor (log2) [17]: 5.64
- PRISMA enrichment of interactor (log2) [18]: 5.54
- PRISMA enrichment of interactor (log2) [19]: 6.72
- PRISMA enrichment of interactor (log2) [20]: 5.71
- PRISMA enrichment of interactor (log2) [21]: 8.57
- PRISMA enrichment of interactor (log2) [22]: 5.37
- PRISMA enrichment of interactor (log2) [23]: 7.04
- PRISMA enrichment of interactor (log2) [24]: 4.54
- PRISMA enrichment of interactor (log2) [25]: 5.44
- PRISMA enrichment of interactor (log2) [26]: 4.44
- PRISMA enrichment of interactor (log2) [27]: 5.24
- PRISMA enrichment of interactor (log2) [28]: 6.43
- PRISMA enrichment of interactor (log2) [29]: 5.8
- PRISMA enrichment of interactor (log2) [30]: 6.31
